Screen size: about 410,000 compounds; about 18,000 (4.4%) were called active. The shares of active, inactive and inconclusive entries below differ from those in the screen. Cut-off read from the data, not from the text of the source: active = activity change below about -60%; inconclusive = no clear call, values can overlap the other calls; inactive = above about -39%.
Experiment: qHTS Assay for inhibitors of the human cytomegalovirus (HCMV)
Details: HFF cells, HCMV-luciferase reporter, 72 h; at 57.5 µM; active compounds read low
Summary of the method: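 Human foreskin fibroblasts infected with luciferase-reporter HCMV at MOI 1 PFU/cell, compounds at two doses. Luciferase measured 72 h post infection; normalized to buffer-only basal and Salinomycin (10uM) controls.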
% is set by controls: 0 for no effect and ±100 for the full control effect.

SMILES | activity change, negative = inhibition
CCCC(=O)Nc1ccc(-c2csc(N/N=C\c3ccncc3)n2)cc1 | inconclusive: -48.5%
Cc1ccc(S(=O)(=O)NNC(=O)c2cccs2)c(C)c1 | inactive: -4.09%
COc1ccc(OC)c(C(C)NC(=O)C(C)n2cc([N+](=O)[O-])cn2)c1 (configuration not stated) | inactive: -6.26%
O=C(CC1CC2CCC1C2)OCC(=O)c1c[nH]c2ccccc12 (configuration not stated) | inactive: -2.74%
O=C(c1cccs1)N(c1ccc(Br)cc1)C1C=CS(=O)(=O)C1 (configuration not stated) | inconclusive: -51%
CC1(C(=O)NS(=O)(=O)c2ccccc2)CCN1C(=O)C1(c2ccccc2)CCCC1 (configuration not stated) | inconclusive: -45.8%
COc1ccc(C(CCN(Cc2ccc(OC)c(OC)c2)C(=O)CCl)c2ccccc2)cc1 (configuration not stated) | active: -91.8%
CCC1CN(C(=O)N2CCC(C(=O)NCCc3cc(OC)ccc3OC)CC2)c2ccccc2O1 (configuration not stated) | inactive: 53.9%
Cn1c(=NC(=O)CSCC(=O)N2CCCC2)sc2ccccc21 | inconclusive: -49.8%
CCCc1nc2ccc(NC(=O)c3ccco3)cc2c(=O)n1Cc1ccccc1Cl | inconclusive: -49.9%
O=c1[nH]c2cccnc2n1-c1ccc([N+](=O)[O-])cc1 | inconclusive: -55.5%
C/C(=N/Nc1ccc(F)cc1)c1ccc(Cl)s1 | inactive: -13.7%
O=[N+]([O-])c1ccc(Oc2ncccn2)cc1 | inactive: 23.9%
COc1ccc(NC(=O)Nc2cccc3c2O[C@H](CN(C)C(=O)Nc2ccc4c(c2)OCO4)[C@@H](C)CN([C@H](C)CO)C3=O)cc1 | inactive: 22.4%
CC1(C)CC(=O)c2c(O)cc(OCc3ccc(Br)cc3)cc2O1 | active: -109%
CCCc1cc(=O)n2c(C(=O)Nc3ccc(OCC)cc3)c(C(=O)Nc3ccc(C)cc3)sc2n1 | active: -83.7%
COc1cccc(C2c3c(oc4cc(C)cc(C)c4c3=O)C(=O)N2CCc2ccc(OC)c(OC)c2)c1 (configuration not stated) | inactive: 7.88%
CN(NS(=O)(=O)c1ccc(Br)cc1)c1nc(C(F)(F)F)nc2ccccc12 | active: -64.4%
Cc1nc(N2CCC(C)CC2)c2c(C)c(C(=O)Nc3cc(F)ccc3C)sc2n1 | inconclusive: -41.8%
c1csc(Cc2nn3c(-c4ccncc4)nnc3s2)c1 | inconclusive: -45.4%
CCOC(=O)C1(CCOC)CCN(Cc2cccc(OCc3ccccc3)c2)CC1 | inconclusive: -40.9%

Quoted from the results shown, 3 compounds:
SMILES | activity change, negative = inhibition
C/C(=N/Nc1ccc(F)cc1)c1ccc(Cl)s1 | inactive: -13.7%
O=[N+]([O-])c1ccc(Oc2ncccn2)cc1 | inactive: 23.9%
COc1ccc(NC(=O)Nc2cccc3c2O[C@H](CN(C)C(=O)Nc2ccc4c(c2)OCO4)[C@@H](C)CN([C@H](C)CO)C3=O)cc1 | inactive: 22.4%

(next part)

SMILES | activity change, negative = inhibition
CC(=O)N1CCc2cc(S(=O)(=O)Nc3cccc(C(F)(F)F)c3)ccc21 | inconclusive: -46.8%
CN(C)CCNC(=O)c1ccc(Sc2ccc(Br)cc2)c([N+](=O)[O-])c1 | inconclusive: -49.6%
COc1cccc(CN2CCN(C(=O)C3CCC(=O)N(C4CCCC4)C3)CC2)c1 (configuration not stated) | inconclusive: -50.8%
O=C(C1CCN(S(=O)(=O)c2ccc3c(c2)OCCO3)CC1)N1CCc2ccccc21 | inconclusive: -46.6%
Cc1cc(C)n(-c2nc(N(C)C)nc(N3CCOCC3)n2)n1 | inconclusive: -48.1%
COc1ccc(S(=O)(=O)N2CCN(C(=O)c3cccc(S(=O)(=O)N4CCCC4)c3)CC2)cc1 | inactive: -8.63%
Cc1c(N)c(C)c([N+](=O)[O-])c(C)c1[N+](=O)[O-] | inconclusive: -55.6%
O=C(N/N=C/c1ccsc1)c1cc(-c2ccncc2)nc2ccccc12 | inconclusive: -51.2%
Cc1ccc(-c2cc(C(=O)NCc3cnn(C)c3C)c3ccccc3n2)cc1C | inactive: 45.5%
Cc1ccc(-c2ccnc3c(Br)c(C)nn23)cc1 | inconclusive: -55.3%
Cc1ccc(C(=O)N2CCc3cc(CNC(=O)CSc4ccccc4)ccc32)cc1 | inconclusive: -44.5%
Clc1ncn(CCOc2ccccc2)c1Cl | inconclusive: -49.5%
Cc1nc2ccccn2c1-c1csc(Nc2cccc(O)c2)n1 | inconclusive: -54.4%
COC(=O)c1c(-c2cccs2)csc1NC(=O)c1cccc(Cl)c1 | inactive: 58.6%
C/C(N)=C(/C#N)C(=O)COC(=O)c1cc2c(s1)CCC(C)C2 (configuration not stated) | inactive: 63.6%
CCOc1ccc(CN2CCN(CC3CC3)CC2CCO)cc1 (configuration not stated) | inactive: 82.2%
COc1ccc(/C=N/n2cnc3c([nH]c4ccc(Br)cc43)c2=O)cc1CN1CCOCC1 | inconclusive: -51.6%
CC1CCc2sc(NC(=S)NC(=O)c3ccccc3)c(C#N)c2C1 (configuration not stated) | inconclusive: -59.1%
O=C([O-])c1cc(-c2ccccc2)cc(-c2ccccc2)[n+]1CCc1ccc(Cl)cc1 | active: -79.5%
Cc1cccc(NC2=Nc3ccccc3N3C2=Nc2c(c(C)nn2-c2ccccc2)C3c2ccc(O)c(O)c2)c1 (configuration not stated) | active: -97.1%
Cc1[nH]n(-c2ccccc2)c(=O)c1C(c1cc(Cl)ccc1O)c1c(C)[nH]n(-c2ccccc2)c1=O | inactive: 65.7%

Source: PubChem BioAssay AID1259415 (National Center for Advancing Translational Sciences (NCATS), 2018)
